Source: the supplement of paper PMC10849652
Some of the results follow.

Amino acid sequences for entries named in this document (tags omitted). A change or cut given only in a name is not applied to a line headed by its entry.
UniProt P51610: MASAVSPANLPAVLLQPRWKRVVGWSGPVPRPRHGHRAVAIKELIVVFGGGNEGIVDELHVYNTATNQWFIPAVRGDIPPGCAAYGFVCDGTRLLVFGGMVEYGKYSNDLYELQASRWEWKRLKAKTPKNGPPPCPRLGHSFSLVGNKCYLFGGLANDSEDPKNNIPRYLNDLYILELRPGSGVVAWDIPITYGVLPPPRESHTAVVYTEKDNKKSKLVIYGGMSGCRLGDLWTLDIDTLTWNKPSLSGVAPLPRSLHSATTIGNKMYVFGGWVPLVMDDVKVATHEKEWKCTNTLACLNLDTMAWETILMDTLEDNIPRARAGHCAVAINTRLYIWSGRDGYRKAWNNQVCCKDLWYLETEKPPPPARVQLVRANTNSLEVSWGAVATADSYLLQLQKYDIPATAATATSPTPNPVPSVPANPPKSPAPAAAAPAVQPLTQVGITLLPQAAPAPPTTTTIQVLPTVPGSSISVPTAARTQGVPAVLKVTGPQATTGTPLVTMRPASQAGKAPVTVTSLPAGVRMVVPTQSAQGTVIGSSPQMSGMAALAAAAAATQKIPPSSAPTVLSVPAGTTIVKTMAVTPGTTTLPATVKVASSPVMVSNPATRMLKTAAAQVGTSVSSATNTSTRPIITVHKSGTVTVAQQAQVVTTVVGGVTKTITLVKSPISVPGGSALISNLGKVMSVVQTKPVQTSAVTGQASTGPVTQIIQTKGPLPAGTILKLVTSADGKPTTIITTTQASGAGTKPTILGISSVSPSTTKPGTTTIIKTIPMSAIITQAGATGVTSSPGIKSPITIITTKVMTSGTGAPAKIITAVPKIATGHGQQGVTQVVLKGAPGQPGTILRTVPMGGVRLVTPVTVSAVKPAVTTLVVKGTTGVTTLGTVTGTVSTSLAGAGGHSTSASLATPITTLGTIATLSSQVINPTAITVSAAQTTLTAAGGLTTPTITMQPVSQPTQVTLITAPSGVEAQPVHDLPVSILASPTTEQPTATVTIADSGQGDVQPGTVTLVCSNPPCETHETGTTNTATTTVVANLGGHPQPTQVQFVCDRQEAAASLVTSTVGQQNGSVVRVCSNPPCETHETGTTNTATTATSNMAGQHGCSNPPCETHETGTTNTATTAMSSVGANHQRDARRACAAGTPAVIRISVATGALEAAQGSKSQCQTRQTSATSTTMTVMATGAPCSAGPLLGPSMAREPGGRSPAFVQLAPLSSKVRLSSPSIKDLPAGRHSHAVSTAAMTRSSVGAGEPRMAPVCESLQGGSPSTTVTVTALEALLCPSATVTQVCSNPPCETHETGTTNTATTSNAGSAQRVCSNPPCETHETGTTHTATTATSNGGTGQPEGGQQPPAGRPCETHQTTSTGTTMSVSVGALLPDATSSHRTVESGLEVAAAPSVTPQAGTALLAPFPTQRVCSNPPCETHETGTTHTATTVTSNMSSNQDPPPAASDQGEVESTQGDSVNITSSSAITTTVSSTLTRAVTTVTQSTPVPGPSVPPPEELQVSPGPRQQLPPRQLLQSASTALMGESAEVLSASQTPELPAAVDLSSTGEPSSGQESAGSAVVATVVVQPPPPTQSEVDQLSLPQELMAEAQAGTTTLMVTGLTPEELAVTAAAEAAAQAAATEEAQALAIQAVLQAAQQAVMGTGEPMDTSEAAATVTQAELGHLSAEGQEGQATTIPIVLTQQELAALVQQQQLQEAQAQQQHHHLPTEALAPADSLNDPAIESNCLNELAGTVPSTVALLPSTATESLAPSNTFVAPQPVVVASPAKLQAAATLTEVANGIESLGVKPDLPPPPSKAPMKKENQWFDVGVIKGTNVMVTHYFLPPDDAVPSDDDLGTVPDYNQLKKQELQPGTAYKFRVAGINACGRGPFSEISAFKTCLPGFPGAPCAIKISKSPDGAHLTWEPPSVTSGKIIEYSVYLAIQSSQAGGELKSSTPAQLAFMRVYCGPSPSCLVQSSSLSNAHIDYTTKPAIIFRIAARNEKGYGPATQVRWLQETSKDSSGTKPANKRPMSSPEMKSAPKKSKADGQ
UniProt Q6PII5: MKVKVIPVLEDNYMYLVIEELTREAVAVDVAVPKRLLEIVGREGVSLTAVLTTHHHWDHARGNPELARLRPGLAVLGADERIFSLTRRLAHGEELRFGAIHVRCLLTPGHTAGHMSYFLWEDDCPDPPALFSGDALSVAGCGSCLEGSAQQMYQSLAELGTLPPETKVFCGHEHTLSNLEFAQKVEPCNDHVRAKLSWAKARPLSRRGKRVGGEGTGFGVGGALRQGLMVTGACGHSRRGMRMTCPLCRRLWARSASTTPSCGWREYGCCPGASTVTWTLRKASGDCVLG
UniProt Q7Z4H7: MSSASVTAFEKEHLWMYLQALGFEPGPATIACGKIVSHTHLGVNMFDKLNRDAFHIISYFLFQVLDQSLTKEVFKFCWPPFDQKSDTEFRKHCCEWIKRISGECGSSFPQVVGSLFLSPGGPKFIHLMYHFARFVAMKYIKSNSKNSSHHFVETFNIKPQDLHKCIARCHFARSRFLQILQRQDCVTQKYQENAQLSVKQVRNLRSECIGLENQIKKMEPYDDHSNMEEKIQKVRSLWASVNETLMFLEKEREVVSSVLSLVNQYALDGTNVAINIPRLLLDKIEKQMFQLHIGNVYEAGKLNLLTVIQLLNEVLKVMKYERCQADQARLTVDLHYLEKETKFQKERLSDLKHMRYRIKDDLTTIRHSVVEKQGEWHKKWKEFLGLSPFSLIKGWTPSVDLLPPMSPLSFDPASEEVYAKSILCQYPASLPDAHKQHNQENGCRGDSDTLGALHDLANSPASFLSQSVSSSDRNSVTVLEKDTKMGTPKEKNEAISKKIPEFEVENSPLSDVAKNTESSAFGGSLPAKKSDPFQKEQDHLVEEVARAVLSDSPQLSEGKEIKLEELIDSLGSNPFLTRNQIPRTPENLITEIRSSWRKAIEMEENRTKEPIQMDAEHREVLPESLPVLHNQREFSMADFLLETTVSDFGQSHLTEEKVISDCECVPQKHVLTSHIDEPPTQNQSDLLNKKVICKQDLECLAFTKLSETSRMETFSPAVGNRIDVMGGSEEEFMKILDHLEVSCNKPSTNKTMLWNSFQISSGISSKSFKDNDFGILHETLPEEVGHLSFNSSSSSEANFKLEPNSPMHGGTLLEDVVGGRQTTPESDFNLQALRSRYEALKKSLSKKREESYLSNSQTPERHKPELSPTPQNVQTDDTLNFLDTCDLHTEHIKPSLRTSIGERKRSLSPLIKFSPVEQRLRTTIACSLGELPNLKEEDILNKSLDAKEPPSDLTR
UniProt Q9P2D3: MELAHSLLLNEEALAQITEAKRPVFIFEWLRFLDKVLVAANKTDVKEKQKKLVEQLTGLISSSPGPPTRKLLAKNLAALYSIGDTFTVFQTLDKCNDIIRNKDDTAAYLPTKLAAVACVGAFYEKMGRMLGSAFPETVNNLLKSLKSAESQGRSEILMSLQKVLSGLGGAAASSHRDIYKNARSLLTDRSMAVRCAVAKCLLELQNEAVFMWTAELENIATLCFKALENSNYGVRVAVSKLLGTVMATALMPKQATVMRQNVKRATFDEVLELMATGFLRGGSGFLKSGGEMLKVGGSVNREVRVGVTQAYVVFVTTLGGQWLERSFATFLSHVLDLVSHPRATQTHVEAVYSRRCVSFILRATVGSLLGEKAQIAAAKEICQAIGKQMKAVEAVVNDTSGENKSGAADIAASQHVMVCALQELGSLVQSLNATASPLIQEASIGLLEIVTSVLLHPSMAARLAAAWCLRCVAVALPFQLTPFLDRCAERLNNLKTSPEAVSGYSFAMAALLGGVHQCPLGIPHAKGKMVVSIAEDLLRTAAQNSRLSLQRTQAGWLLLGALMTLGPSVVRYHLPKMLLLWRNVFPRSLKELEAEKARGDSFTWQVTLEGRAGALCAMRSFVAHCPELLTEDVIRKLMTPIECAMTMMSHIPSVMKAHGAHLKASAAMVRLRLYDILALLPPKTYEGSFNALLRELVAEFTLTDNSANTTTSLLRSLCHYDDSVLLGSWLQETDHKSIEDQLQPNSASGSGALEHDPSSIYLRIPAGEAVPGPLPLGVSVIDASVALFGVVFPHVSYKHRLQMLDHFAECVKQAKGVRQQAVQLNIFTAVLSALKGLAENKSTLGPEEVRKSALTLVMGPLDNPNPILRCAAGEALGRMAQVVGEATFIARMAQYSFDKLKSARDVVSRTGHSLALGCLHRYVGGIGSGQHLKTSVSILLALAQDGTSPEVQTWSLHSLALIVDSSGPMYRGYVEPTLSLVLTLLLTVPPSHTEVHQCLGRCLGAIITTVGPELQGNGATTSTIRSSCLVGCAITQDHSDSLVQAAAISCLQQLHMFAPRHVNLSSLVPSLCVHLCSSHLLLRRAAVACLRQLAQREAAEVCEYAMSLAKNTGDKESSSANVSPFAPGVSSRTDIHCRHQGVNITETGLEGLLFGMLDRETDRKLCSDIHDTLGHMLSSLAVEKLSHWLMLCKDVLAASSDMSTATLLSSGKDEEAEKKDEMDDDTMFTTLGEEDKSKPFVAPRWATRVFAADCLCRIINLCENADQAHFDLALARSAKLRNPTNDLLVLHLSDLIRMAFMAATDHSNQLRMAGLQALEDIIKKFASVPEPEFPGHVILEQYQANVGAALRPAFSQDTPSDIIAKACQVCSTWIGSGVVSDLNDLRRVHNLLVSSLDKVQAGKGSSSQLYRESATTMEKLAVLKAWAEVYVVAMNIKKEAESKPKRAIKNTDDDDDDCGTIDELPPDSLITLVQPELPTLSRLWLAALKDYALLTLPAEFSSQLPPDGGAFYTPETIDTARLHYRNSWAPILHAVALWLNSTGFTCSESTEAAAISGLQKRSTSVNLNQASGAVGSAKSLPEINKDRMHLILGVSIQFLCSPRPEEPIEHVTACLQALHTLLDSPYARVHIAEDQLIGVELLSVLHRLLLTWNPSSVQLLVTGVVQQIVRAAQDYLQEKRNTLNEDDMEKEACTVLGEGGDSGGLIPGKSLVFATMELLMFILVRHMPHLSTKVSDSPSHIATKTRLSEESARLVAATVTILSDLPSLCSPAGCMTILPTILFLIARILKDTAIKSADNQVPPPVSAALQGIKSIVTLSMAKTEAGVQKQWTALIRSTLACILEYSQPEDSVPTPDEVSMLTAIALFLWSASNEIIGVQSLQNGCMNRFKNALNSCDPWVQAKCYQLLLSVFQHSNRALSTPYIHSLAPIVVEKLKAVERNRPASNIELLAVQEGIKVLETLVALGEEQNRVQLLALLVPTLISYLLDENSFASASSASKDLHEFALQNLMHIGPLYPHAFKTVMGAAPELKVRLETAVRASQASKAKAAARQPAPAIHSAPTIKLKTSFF
UniProt P08236: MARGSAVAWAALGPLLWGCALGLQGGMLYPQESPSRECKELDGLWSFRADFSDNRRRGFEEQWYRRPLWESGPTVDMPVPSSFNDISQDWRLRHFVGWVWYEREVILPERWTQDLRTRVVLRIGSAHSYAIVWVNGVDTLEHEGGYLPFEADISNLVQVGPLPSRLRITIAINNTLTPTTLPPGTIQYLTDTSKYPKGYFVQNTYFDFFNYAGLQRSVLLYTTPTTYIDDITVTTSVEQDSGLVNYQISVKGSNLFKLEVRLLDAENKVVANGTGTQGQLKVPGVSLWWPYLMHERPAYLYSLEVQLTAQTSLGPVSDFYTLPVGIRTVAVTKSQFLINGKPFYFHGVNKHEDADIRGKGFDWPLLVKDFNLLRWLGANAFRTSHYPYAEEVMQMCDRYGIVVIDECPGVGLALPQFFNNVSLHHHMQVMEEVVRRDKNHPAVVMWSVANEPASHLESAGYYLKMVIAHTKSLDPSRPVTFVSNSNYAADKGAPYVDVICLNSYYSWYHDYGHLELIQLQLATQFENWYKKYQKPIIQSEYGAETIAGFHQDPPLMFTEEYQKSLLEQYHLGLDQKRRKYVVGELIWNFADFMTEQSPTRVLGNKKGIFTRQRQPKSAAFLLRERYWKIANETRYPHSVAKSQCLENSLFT
UniProt P49841: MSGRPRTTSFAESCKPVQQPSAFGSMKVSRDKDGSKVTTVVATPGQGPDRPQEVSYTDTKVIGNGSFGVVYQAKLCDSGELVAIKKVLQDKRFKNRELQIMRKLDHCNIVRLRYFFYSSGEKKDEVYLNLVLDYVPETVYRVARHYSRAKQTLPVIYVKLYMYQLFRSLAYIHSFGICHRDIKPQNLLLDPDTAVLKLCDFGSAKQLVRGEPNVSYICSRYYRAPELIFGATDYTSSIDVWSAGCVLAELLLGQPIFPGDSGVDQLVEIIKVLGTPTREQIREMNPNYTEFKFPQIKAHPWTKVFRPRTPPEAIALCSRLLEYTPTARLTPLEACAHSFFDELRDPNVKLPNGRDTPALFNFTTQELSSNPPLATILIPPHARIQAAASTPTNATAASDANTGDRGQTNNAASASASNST

Legend:
Assay in all cases: log2 fold change, soluble protein after heating vs DMSO (PISA); higher = thermal stabilisation; K562 cells, 10 uM, 30 min; active = over 0.2 and 3.5 SD of the protein, either way, in both replicates (recomputed)
[1] = compound: CC1=C(C=C(C=C1)NC(=O)C2=CC(=CC=C2)C(C)(C)C#N)NC3=CC4=C(C=C3)N=CN(C4=O)C
Outline: (§1)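 Soluble protein was defined as the supernatant after 21,000xg for 90 min. It came from K562 cells at 2×10^6 cells/mL given 10 μM compound for 30 min, heated in aliquots for 3 min across 48°C-58°C, pooled, and extracted in PBS with 0.5% NP-40 at 4°C, and was quantified by TMTpro 16plex LC-MS/MS with equalised channel sums. Thermal stability against control samples, from duplicates, is reported as log2 fold change.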

[2] = compound: CC1=C(C=C(C=C1)NC(=O)C2=CC(=CC=C2)N(C)C)NC(=O)C3=CC=C(C=C3)O
Outline: as §1

[3] = compound: CC1=CC=C(C=C1)SC2=C3C=C(SC3=CN=C2)C(=O)N
Outline: as §1

[4] = compound: CC1=NC(=CC=C1)C2=C(N=C(N2)C(C)(C)C)C3=CC4=NC=CN=C4C=C3
Outline: as §1

Nexturastat A = compound: CCCCN(Cc1ccc(C(=O)NO)cc1)C(=O)Nc1ccccc1 [Nexturastat A]
Outline: as §1

vemurafenib = compound: CCCS(=O)(=O)Nc1ccc(F)c(C(=O)c2c[nH]c3ncc(-c4ccc(Cl)cc4)cc23)c1F [vemurafenib]
Outline: as §1

[5] = compound: CCCS(=O)(=O)Nc1ccc(F)c(C(=O)c2c[nH]c3ncc(Cl)cc23)c1F
Outline: as §1

[6] = compound: CCCc1cc(C)[nH]c(=O)c1CNC(=O)c1cc(-c2ccnc(N3CCN(C)CC3)c2)cc2c1cnn2C(C)C
Outline: as §1

barasertib = compound: CCN(CCCOc1ccc2c(Nc3cc(CC(=O)Nc4cccc(F)c4)[nH]n3)ncnc2c1)CCOP(=O)(O)O [barasertib]
Outline: as §1

[7] = compound: CC[C@@H]1C(=O)N(C)c2cnc(Nc3ccc(C(=O)NC4CCN(C)CC4)cc3OC)nc2N1C1CCCC1
Outline: as §1

volasertib = compound: CC[C@@H]1C(=O)N(C)c2cnc(Nc3ccc(C(=O)N[C@H]4CC[C@H](N5CCN(CC6CC6)CC5)CC4)cc3OC)nc2N1C(C)C [volasertib]
Outline: as §1

[8] = compound: CC[C@H](C)N1C=C(C2=C(C=C(C=C21)C3=CN=C(C=C3)N4CCNCC4)C(=O)NCC5=C(C=C(NC5=O)C)C)C
Outline: as §1

epoxomicin = compound: CC[C@H](C)[C@@H](C(=O)N[C@@H]([C@@H](C)O)C(=O)N[C@@H](CC(C)C)C(=O)[C@]1(CO1)C)NC(=O)[C@H]([C@@H](C)CC)N(C)C(=O)C [epoxomicin]
Outline: as §1

[9] = compound: CCn1cc(-c2ccnc3[nH]c(-c4cccc(CN(C)C)c4)cc23)c(-c2ccc(NC(=O)N(C)C)cc2)n1
Outline: as §1

[10] = compound: CN(C)CC(=O)Nc1ccc2[nH]c(=O)c3ccccc3c2c1
Outline: as §1

rosiglitazone = compound: CN(CCOC1=CC=C(C=C1)C[C@H]2C(=O)NC(=O)S2)C3=CC=CC=N3 (racemic) [rosiglitazone]
Outline: as §1

[11] = compound: CN1C2=C(C3=C1C(=O)N(N=C3)CC4=CC(=CC=C4)N)SC(=C2)S(=O)C
Outline: as §1

[12] = compound: CN1CCC(CNc2ccc3ncc(-c4cccc(OC(F)(F)F)c4)n3n2)CC1
Outline: as §1

givinostat = compound: CCN(CC)Cc1ccc2cc(COC(=O)Nc3ccc(C(=O)NO)cc3)ccc2c1 [givinostat]
Outline: as §1

[13] = compound: CCn1c(C(=O)N(C2CC2)C2CC2)cc2c3c(ncn3C)c(Nc3cc(C)n(C)n3)nc21
Outline: as §1

Target	log2 fold change [1]	log2 fold change [2]	log2 fold change [3]	log2 fold change [4]	log2 fold change (Nexturastat A)	log2 fold change (vemurafenib)	log2 fold change [5]	log2 fold change [6]	log2 fold change (barasertib)	log2 fold change [7]	log2 fold change (volasertib)	log2 fold change [8]	log2 fold change (epoxomicin)	log2 fold change [9]	log2 fold change [10]	log2 fold change (rosiglitazone)	log2 fold change [11]	log2 fold change [12]	log2 fold change (givinostat)	log2 fold change [13]
HERC2 (UniProt O95714)	inactive: 0.057	inactive: 0.005	inactive: 0.063	inactive: -0.179	inactive: 0.182	inactive: -0.185	inactive: -0.162	inactive: -0.126	inactive: -0.36	inactive: 0.141	inactive: -0.201	inactive: -0.016	inactive: -0.132	inactive: 0.292	inactive: -0.051	inactive: 0.078	inactive: 0.429	inactive: 0.349		
HCFC1 (UniProt P51610)	inactive: -0.041	inactive: 0.081		inactive: -0.088		inactive: -0.066		inactive: 0.006		inactive: 0.016		inactive: -0.102		inactive: 0.158	inactive: -0.106			inactive: 0.067	inactive: 0.153	inactive: 0.305
HAGHL isoform 2 (UniProt Q6PII5)	inactive: 0.111	inactive: -0.024		inactive: 0.059	inactive: -0.087	inactive: 0.112		inactive: -0.052	inactive: 0			inactive: -0.001	inactive: -0.035		inactive: -0.001	inactive: -0.019	inactive: 0.028		inactive: 0.036	inactive: 0.033
GTPBP6 (UniProt O43824)	inactive: 0.038	inactive: 0.014		inactive: -0.042	inactive: -0.037	inactive: 0.015		inactive: 0.006	inactive: -0.015	inactive: -0.07		inactive: -0.041	inactive: 0.026	inactive: -0.079	inactive: 0.034		inactive: -0.13	inactive: -0.007	inactive: -0.062	
HAUS6 (UniProt Q7Z4H7)	inactive: 0.003	inactive: 0.008	inactive: 0.055	inactive: -0.084	inactive: 0.286		inactive: -0.03	inactive: 0.167	inactive: 0.128	inactive: 0.05	inactive: -0.412	inactive: 0.053	inactive: -0.103			inactive: -0.079	inactive: 0.28		inactive: 0.161	inactive: 0.001
GUK1 isoform 2 (UniProt Q16774)	inactive: 0.173	inactive: -0.062	inactive: -0.018	inactive: 0.093	inactive: -0.065	inactive: 0.118	inactive: -0.002	inactive: 0.026	inactive: -0.018	inactive: -0.116	inactive: 0.081	inactive: 0.097	inactive: 0.12	inactive: -0.167	inactive: 0.049		inactive: 0	inactive: 0.071	inactive: 0.072	
HAUS4 (UniProt Q9H6D7)	inactive: -0.143	inactive: 0.003	inactive: 0.084		inactive: -0.061	inactive: -0.049	inactive: 0.012	inactive: -0.269	inactive: -0.16	inactive: -0.138	inactive: -0.027	inactive: 0.123	inactive: -0.391	inactive: 0.032	inactive: -0.072		inactive: 0.246	inactive: 0.049	inactive: 0.08	
HAUS5 (UniProt O94927)	inactive: 0.088	inactive: -0.002	inactive: 0.043	inactive: -0.197			inactive: -0.062	inactive: 0.341		inactive: 0.187	inactive: -0.002	inactive: 0.068		inactive: 0.257			inactive: 0.372	inactive: 0.42		
HEATR5B (UniProt Q9P2D3)	inactive: 0.013	inactive: 0.005	inactive: 0.03	inactive: 0.022	active: 0.219	inactive: 0.019	inactive: -0.014	inactive: -0.024	inactive: 0	inactive: -0.053	inactive: -0.19	inactive: 0.083	inactive: -0.058	inactive: 0.018	inactive: -0.009		inactive: -0.017	inactive: -0.015	inactive: 0.07	
HAX1 (UniProt O00165)	inactive: -0.018	inactive: -0.101	inactive: 0.03	inactive: -0.058	inactive: 0.066	inactive: -0.012	inactive: 0.082	inactive: 0.045	inactive: 0.046	inactive: -0.087	active: -0.393	inactive: -0.011	inactive: -0.018	inactive: 0.084	inactive: 0.05		inactive: 0.012	active: -0.584	inactive: 0.009	
GUSB (UniProt P08236)	inactive: -0.013	inactive: -0.014	inactive: -0.027	inactive: -0.073	inactive: 0.277	inactive: 0.06	inactive: 0.03	inactive: -0.038	inactive: -0.048	inactive: -0.104	inactive: 0.067	inactive: 0.354	inactive: -0.053	inactive: -0.026	inactive: -0.001		inactive: -0.028	inactive: 0.001	active: -0.501	
HDAC7 isoform 5 (UniProt Q8WUI4)	inactive: -0.01	inactive: 0.028	inactive: -0.043	inactive: -0.002	inactive: 0.108	inactive: 0	inactive: -0.009	inactive: -0.014	inactive: 0	inactive: 0.051	inactive: 0.01	inactive: 0.007	inactive: 0.016	inactive: -0.058	inactive: 0.059		inactive: -0.053	inactive: -0.123		
H6PD (UniProt O95479)	inactive: -0.017	inactive: 0.144	inactive: -0.226		inactive: 0.105	inactive: -0.144	inactive: -0.228	inactive: -0.037		inactive: 0	inactive: -0.15	inactive: 0.353	inactive: -0.124	inactive: 0.054	inactive: -0.222		inactive: 0.067	inactive: 0	inactive: 0	inactive: -0.159
HADHB (UniProt P55084)	inactive: 0.19	inactive: -0.248	inactive: -0.002	inactive: -0.012	inactive: -0.085	inactive: -0.047	inactive: -0.042	inactive: 0.113	inactive: 0	inactive: 0.082	inactive: 0.462	inactive: 0.123	inactive: 0.05	inactive: -0.223	inactive: 0.015		inactive: -0.058	inactive: -0.223	inactive: 0.064	
GUF1 (UniProt Q8N442)	inactive: 0.241	inactive: -0.043	inactive: 0.08	inactive: 0.029		inactive: 0.014	inactive: 0.055	inactive: -0.011		inactive: 0.031	inactive: -0.164	inactive: 0.002		inactive: -0.02	inactive: 0.035		inactive: 0.25	inactive: -0.025	inactive: -0.047	inactive: 0.088
GTF3C4 (UniProt Q9UKN8)	inactive: -0.025	inactive: -0.027	inactive: 0.038	inactive: 0.008	inactive: -0.052	inactive: 0.032	inactive: 0.045	inactive: 0.033	inactive: 0.003	inactive: -0.002	active: -0.263	inactive: 0.001	inactive: -0.001	inactive: -0.003	inactive: -0.024		inactive: 0.007	inactive: 0	inactive: -0.007	
GTPBP4 (UniProt Q9BZE4)	inactive: -0.081	inactive: -0.055			inactive: 0.308	inactive: 0.026		inactive: 0.016	inactive: -0.078	inactive: 0.102		inactive: -0.133	inactive: -0.329	inactive: -0.04	inactive: -0.06	inactive: -0.145	inactive: 0.472	inactive: 0.289		
GSK3B isoform 2 (UniProt P49841)	inactive: 0.015	inactive: -0.022	inactive: 0.044	inactive: 0.034	inactive: 0.003	inactive: -0.008	inactive: -0.018	inactive: -0.066	inactive: -0.017	inactive: 0.013	inactive: -0.027	inactive: -0.002	inactive: 0.058	inactive: -0.1	inactive: -0.001		inactive: -0.004	inactive: 0.004	inactive: -0.07	

Limited to log2 fold change (givinostat) and log2 fold change [6] (two entries from above):
Target,log2 fold change (givinostat),log2 fold change [6]
GTF3C4 (UniProt Q9UKN8),inactive: -0.007,inactive: 0.033
GTPBP4 (UniProt Q9BZE4),,inactive: 0.016
